From PubChem BioAssay AID493014 (National Center for Advancing Translational Sciences (NCATS), 2011) come the findings set out here.

The list shows a part of the results. Further columns of the screen follow, without active or inactive calls. Most of these compounds were active or inconclusive in the main read-out, so they are no random draw. The note in brackets gives the kind of curve behind each potency; many fits are weak.

This test is described as follows: qHTS Assay to Find Inhibitors of Chronic Active B-Cell Receptor Signaling. The conditions noted are these: ABC-DLBCL IkBa-CBG/CBR reporter, luminescence ratio (green luciferase fused to IkBa over red control in TMD8 lymphoma cells), 4 h. In outline:
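TMD8 human ABC-DLBCL cells with doxycycline-inducible IκBα–green luciferase fusion and unfused red luciferase, in 0.5% FBS medium; compounds up to 46 uM, 4 h at 37C. Green/red luminescence ratio, filter-overlap corrected, fitted to concentration-response curves.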

The mark [1] stands for this setting: measured here: CBR red luminescence, cell number.
Setting [2] is: measured here: IkBa-CBG green luminescence.

With `Cc1occc1C(=O)N/N=C/C1=C(N2CCOCC2)C(=C\c2ccc(Cl)cc2Cl)/CC1`, the concentration at half-maximal activity (AC50) (as a rule, the concentration at which the activity in the assay is half-maximal) under setting [1] is 25.9 µM [falling, single point].

Take `CC1=C/C(=N\OS(=O)(=O)c2ccccc2)C=CC1=O`: the AC50 under setting [1] was 2.06 µM [rising, partial curve, poor fit].

Take `COC(=O)c1sc(NC(=O)c2csc3c2CCCC3)nc1C`: the AC50 under setting [1] was 2.31 µM [falling, partial curve, poor fit].

With `CCN1C(=O)CC(NNC(=O)c2ccc(Cl)cc2)C1=O` (configuration not stated), the concentration at half-maximal activity (AC50) under setting [1] was 3.16 µM [falling, partial curve, poor fit].

`O=C1CC(Cc2ccccc2)C(=O)N1c1ccc(Cl)cn1` (configuration not stated): the concentration at half-maximal activity (AC50) under setting [1] is 6.31 µM [rising, single point].

Take `COc1ccccc1NS(=O)(=O)c1cc(NC(=O)Nc2ccc(Cl)cc2Cl)ccc1N1CCCCC1`: under setting [1], the concentration at half-maximal activity (AC50) was 16.4 µM [rising, partial curve, poor fit].

On to `O=[N+]([O-])c1ccc(S(=O)(=O)CC(CN2CCOCC2)N2CCOCC2)cc1` (configuration not stated), for which, under setting [1], the half-maximal activity concentration (AC50) was 1.12 µM [falling, full curve, poor fit].

With `O=c1[nH]c2ccc(Cl)cc2c(-c2ccccc2)c1SC(=S)N1CCCCC1`, the half-maximal activity concentration (AC50) under setting [1] is 29.1 µM [rising, single point].

As to `COc1ccccc1NC(=O)CCn1c(=S)oc2ccccc21`, under setting [1], the AC50 is 2.82 µM [rising, single point].

Turning to `CCOCCCNC(=O)c1ccc2c(c1)ncn2C1CCCC1`, under setting [1], the AC50 was 8.2 µM [rising, single point].

For `CC(C)N(Cc1nc(-c2ccccc2)no1)C(=O)CN(C)S(=O)(=O)c1ccccc1`, under setting [1], the AC50 is 6.51 µM [falling, single point].

Turning to `CCOc1ccc(/C=N/NC(=O)c2ccc(O)cc2)cc1CN1CC2CC(C1)c1cccc(=O)n1C2` (configuration not stated), under setting [1], the AC50 was 0.731 µM [falling, full curve].

With `COc1cc2c(cc1OC)C(c1ccc(OC)c(OC)c1OC)CC(=O)N2` (configuration not stated), the AC50 under setting [1] was 11.2 µM [rising, partial curve, poor fit] and the half-maximal activity concentration (AC50) under setting [2] is 11.2 µM [falling, partial curve].

`O=C(O)CCCn1cc(NC(=O)COc2ccccc2F)cn1`: under setting [1], the AC50 was 14.1 µM [rising, single point].

With `Cc1cc(C)cc(NC(=O)CCc2nc3sc4c(c3c(=O)[nH]2)CCCC4)c1`, under setting [1], the AC50 is 11.6 µM [rising, partial curve].

Consider `COc1ccc(C(=O)O/N=C(\N)c2ccccc2)c(OC)c1`, for which the AC50 under setting [1] was 1.64 µM [falling, partial curve] and the half-maximal activity concentration (AC50) under setting [2] is 25.9 µM [falling, single point].

In the case of `COc1ccccc1NS(=O)(=O)c1cccc(NC(=O)CCNC(=O)c2ccccc2OC)c1`, the concentration at half-maximal activity (AC50) under setting [1] is 29.1 µM [falling, single point].

In the case of `CN(C)CCCO/N=C(\c1ccccc1)c1ccncc1`, the AC50 under setting [1] was 0.651 µM [rising, full curve].

Turning to `N#CC1=C(N)OC2=C(CC/C2=C\c2ccccc2Cl)C1c1ccccc1Cl` (configuration not stated), the half-maximal activity concentration (AC50) under setting [1] was 29.1 µM [falling, single point].

With `Cc1ccc(Cn2nnc3c(=O)[nH]c(C4CCCN(S(=O)(=O)c5ccccc5)C4)nc32)cc1` (configuration not stated), under setting [1], the half-maximal activity concentration (AC50) is 1.16 µM [rising, partial curve, poor fit].

`CCOc1ccc2nc(NC(=O)Nc3cccs3)sc2c1`: the concentration at half-maximal activity (AC50) under setting [1] is 5.8 µM [rising, full curve, poor fit].

For the compound `O=C(O)c1cc2ccc3cccc4ccc(c1)c2c34`, the AC50 under setting [1] is 3.16 µM [falling, partial curve, poor fit].

On to `O=C1C2=C(c3ccccc31)[N+](=O)[C@@H]1CCCC[C@@H]1N2[O-]`, for which the AC50 is, setting by setting: under setting [1], 6.31 µM [falling, single point]; under setting [2], 6.31 µM [rising, partial curve, poor fit].

Consider `CCOC(=O)Nc1nc(-c2ccc(Cl)cc2Cl)cs1`, for which the AC50 under setting [1] was 3.66 µM [rising, full curve, poor fit].

On to `Cc1ccc(N(Cc2ccc(C(=O)NC3CCCCC3)cc2)S(C)(=O)=O)cc1C`, for which, under setting [1], the concentration at half-maximal activity (AC50) was 23.1 µM [falling, single point].

With `COc1cc(C(=O)OCC(=O)N2CCC(Cc3ccccc3)CC2)cc(OC)c1OC`, the concentration at half-maximal activity (AC50) under setting [1] was 0.58 µM [rising, full curve, poor fit].

Turning to `COc1ccc(C(=O)Nc2c(C)ccc3nsnc23)cc1[N+](=O)[O-]`, the half-maximal activity concentration (AC50) under setting [1] is 2.31 µM [rising, full curve].

In the case of `COc1ccc2[nH]c(C(=O)N(C)c3ccc(F)cc3F)cc2c1`, the AC50 under setting [1] is 0.0891 µM [rising, full curve, poor fit].

As for `COc1cccc(NC(=O)C(Cc2ccccc2)NC(=O)C2CCC(C)CC2)c1` (configuration not stated), under setting [1], the AC50 is 2.91 µM [falling, partial curve, poor fit].

As for `CCCSc1nsc(SCCC)c1C#N`, the AC50 reads like this: under setting [1], 14.6 µM [rising, partial curve, poor fit]; under setting [2], 20.6 µM [falling, single point].

Take `COc1ccc(OC)c(NC(=O)CN2C(=O)NC(C)(c3ccc4c(c3)OCCO4)C2=O)c1` (configuration not stated): the concentration at half-maximal activity (AC50) under setting [1] was 29.1 µM [rising, single point].

With `Nc1cc([N+](=O)[O-])ccc1Nc1ccc(O)cc1`, the concentration at half-maximal activity (AC50) is 14.1 µM [falling, partial curve, poor fit] under setting [1] and 10 µM [rising, partial curve] under setting [2].

Turning to `COc1ccc(CNS(=O)(=O)c2ccccc2Br)cc1`, the AC50 under setting [1] is 15.8 µM [falling, single point].

In the case of `COc1ccc(/C=C2\CCCc3c2nc2ccccc2c3C(=O)OCC(=O)c2c(N)n(C)c(=O)n(C)c2=O)cc1`, the AC50 under setting [1] is 29.1 µM [falling, single point].

Regarding `Cc1cccc(C)c1NC(=O)CNC(=O)CNC(=O)Cc1cccc2ccccc12`, the AC50 under setting [2] is 25.9 µM [falling, partial curve, poor fit].

Turning to `CSc1nc(C)cc(SCC(=O)Nc2ccccc2)n1`, under setting [1], the AC50 was 0.366 µM [falling, full curve, poor fit].

Regarding `CCOC(=O)N1CCN(Cc2cn[nH]c2-c2ccc(-c3ccccc3)cc2)CC1`, the concentration at half-maximal activity (AC50) under setting [1] was 35.5 µM [falling, single point].

Turning to `CO/N=C\CC(=O)Nc1ccc(Oc2ccccc2)cc1`, the concentration at half-maximal activity (AC50) is 35.5 µM [rising, single point] under setting [1] and 15.8 µM [falling, single point] under setting [2].

Turning to `CCc1nc(Nc2cccc(OC)c2)c2oc3ccccc3c2n1`, the concentration at half-maximal activity (AC50) under setting [1] is 12.6 µM [falling, partial curve, poor fit].

For `Cc1ccccc1C(CC(=O)c1cccs1)C(C#N)C#N` (configuration not stated), the AC50 under setting [1] was 10.3 µM [falling, partial curve, poor fit].

With `Cc1cc(=O)c2cc(Cl)ccc2[nH]1`, the AC50 under setting [1] is 22.4 µM [falling, single point].

As to `CCOC(=O)C1CCN(C(=O)c2cc3cc(F)ccc3[nH]2)CC1`, under setting [1], the AC50 was 3.55 µM [falling, full curve, poor fit].

As to `CCCCC(=O)N1CCN(c2nc3c(C)c(C)ccc3s2)CC1`, the AC50 under setting [1] was 0.708 µM [rising, full curve, poor fit].

Turning to `CC(C)(C)c1ccc(C(=O)N2CCC(=O)N(C(COCc3ccccc3)Cc3ccccc3)CC2)cc1` (configuration not stated), the AC50 under setting [1] was 13 µM [falling, single point].

With `Cc1cccc(NC(=O)C(=O)N/N=C/c2ccncc2)c1`, the AC50 under setting [1] is 14.1 µM [falling, partial curve, poor fit].

For the compound `CC1CCN(CC(=O)Nc2ccc(C(=O)N3CCCCC3)cc2)CC1`, the concentration at half-maximal activity (AC50) under setting [1] was 3.55 µM [rising, full curve, poor fit].

With `COCCNC(=O)/C(C#N)=C/C=C/c1ccccc1`, the AC50 under setting [1] is 12.6 µM [falling, partial curve].

Consider `COc1cccc(-c2c(C(=O)N/N=C/c3sccc3C)nnn2-c2nonc2N)c1`, for which the AC50 under setting [1] is 12.6 µM [falling, partial curve, poor fit].

Consider `C=CC[C@@H](CC(=O)N[C@@H](CO)Cc1ccccc1)C(=O)N[C@H](COC(=O)[C@@H](CC=C)CC(=O)OC(C)(C)C)Cc1c[nH]c2ccccc12`, for which the half-maximal activity concentration (AC50) under setting [1] is 29.1 µM [falling, single point].

As to `O=C(NCCc1cccc(F)c1)C1CCCN(c2nc3ccccc3s2)C1` (configuration not stated), under setting [1], the AC50 is 12.6 µM [falling, partial curve, poor fit].

Consider `COc1ccc(C(=O)C(OC(=O)c2ccccc2Cl)c2ccccc2)cc1` (configuration not stated), for which the AC50 under setting [1] was 1.03 µM [falling, partial curve, poor fit].

Consider `CCCCn1c(N)c(N(Cc2ccccc2OC)C(=O)c2cc(CC)c(C)s2)c(=O)[nH]c1=O`, for which the AC50 under setting [1] is 32.6 µM [falling, single point].

For the compound `O=C(N/N=C/c1sc(=O)[nH]c1-[n+]1ccccc1)c1ccccc1[O-]`, under setting [1], the half-maximal activity concentration (AC50) was 11.2 µM [falling, partial curve, poor fit].

Consider `CCSc1nnc(NC(=O)C2CCCCC2)s1`, for which, under setting [1], the AC50 is 7.94 µM [falling, partial curve, poor fit].

As to `O=CN1CCCN(Cc2nc(Cc3ccccc3F)no2)CC1`, the AC50 under setting [1] was 7.94 µM [rising, partial curve].

On to `Cn1c(CCN2CCN(c3ccccn3)CC2)nc2cc(NS(=O)(=O)c3ccc(Cl)cc3)ccc21`, for which the AC50 under setting [1] was 8.91 µM [falling, partial curve].

Turning to `O=[N+]([O-])c1cc(C(F)(F)F)ccc1Sc1nccn1Cc1ccccc1`, the half-maximal activity concentration (AC50) was 35.5 µM [falling, single point] under setting [1] and 17.8 µM [rising, partial curve, poor fit] under setting [2].

`COC(=O)C(Cc1ccccc1)NC(=O)c1ccc(C)cc1` (configuration not stated): the AC50 under setting [1] was 0.708 µM [rising, full curve, poor fit].

Regarding `Cc1cccc(-n2nc(C(=O)Nc3ccccc3)n3c(=O)cc(-c4ccccc4)nc23)c1`, the concentration at half-maximal activity (AC50) under setting [1] is 23.1 µM [falling, single point].

On to `CC(C)(C)NC(=O)COC(=O)c1ccc(NC(=O)CC#N)cc1`, for which the AC50 under setting [1] was 35.5 µM [falling, single point].
